Our source for the binding values is paper PMC5216983.

Chains of the proteins cited; added tags and fusions are not shown. Residues count along the entry.
UniProt P05622, residues 32-1098: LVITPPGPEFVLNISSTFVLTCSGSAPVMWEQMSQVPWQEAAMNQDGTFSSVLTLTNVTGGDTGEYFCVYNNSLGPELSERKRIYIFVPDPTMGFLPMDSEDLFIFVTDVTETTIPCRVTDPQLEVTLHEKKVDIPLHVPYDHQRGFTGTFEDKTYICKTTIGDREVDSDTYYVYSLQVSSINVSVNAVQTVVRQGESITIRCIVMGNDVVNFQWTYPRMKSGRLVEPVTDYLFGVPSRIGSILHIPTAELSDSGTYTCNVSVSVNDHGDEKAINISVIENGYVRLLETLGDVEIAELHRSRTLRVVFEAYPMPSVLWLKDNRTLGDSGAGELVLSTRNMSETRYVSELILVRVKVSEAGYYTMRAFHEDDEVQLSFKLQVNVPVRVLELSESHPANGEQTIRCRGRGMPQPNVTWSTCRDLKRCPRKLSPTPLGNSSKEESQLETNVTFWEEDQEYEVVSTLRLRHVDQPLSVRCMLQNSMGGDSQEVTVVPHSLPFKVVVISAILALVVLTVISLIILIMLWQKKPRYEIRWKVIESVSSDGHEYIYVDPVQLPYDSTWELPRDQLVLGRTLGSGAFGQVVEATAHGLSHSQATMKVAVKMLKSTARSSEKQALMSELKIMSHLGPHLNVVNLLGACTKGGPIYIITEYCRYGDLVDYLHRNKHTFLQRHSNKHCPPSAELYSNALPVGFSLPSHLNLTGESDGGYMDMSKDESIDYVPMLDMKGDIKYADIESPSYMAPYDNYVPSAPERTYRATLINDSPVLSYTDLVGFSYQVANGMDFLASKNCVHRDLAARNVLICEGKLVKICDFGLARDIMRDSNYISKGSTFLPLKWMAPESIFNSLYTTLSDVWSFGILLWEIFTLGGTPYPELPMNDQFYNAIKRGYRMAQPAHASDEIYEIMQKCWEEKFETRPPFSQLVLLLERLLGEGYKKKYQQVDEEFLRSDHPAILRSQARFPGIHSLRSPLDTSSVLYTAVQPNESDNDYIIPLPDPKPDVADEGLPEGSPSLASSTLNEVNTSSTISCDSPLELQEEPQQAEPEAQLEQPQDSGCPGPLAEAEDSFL
UniProt P34152: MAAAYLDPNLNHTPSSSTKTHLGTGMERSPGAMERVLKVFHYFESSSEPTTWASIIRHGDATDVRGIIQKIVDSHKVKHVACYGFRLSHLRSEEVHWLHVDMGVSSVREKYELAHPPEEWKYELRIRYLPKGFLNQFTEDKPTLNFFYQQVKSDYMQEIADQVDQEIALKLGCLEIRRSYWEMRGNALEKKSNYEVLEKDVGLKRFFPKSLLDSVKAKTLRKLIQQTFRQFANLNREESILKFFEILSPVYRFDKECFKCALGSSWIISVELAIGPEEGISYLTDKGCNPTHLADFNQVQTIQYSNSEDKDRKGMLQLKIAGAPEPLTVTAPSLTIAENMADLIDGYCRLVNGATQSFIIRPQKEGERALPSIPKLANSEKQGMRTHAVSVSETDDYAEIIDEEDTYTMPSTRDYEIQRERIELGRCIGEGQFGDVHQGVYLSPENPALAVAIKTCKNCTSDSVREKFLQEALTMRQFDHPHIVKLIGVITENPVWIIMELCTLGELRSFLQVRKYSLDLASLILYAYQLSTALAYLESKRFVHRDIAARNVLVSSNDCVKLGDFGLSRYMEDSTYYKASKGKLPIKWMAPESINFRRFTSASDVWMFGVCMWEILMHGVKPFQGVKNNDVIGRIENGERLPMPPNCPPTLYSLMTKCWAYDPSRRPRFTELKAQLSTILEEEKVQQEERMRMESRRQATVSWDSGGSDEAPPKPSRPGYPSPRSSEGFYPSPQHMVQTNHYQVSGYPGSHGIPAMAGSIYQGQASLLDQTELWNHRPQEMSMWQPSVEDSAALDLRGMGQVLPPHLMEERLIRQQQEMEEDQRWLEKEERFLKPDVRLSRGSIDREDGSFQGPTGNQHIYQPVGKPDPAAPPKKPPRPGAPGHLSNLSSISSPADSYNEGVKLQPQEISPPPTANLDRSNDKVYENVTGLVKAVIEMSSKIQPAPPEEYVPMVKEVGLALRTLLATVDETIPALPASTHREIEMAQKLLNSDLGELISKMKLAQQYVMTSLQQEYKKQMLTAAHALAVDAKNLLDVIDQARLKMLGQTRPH

Results are given in words; binding and its absence hold for the method and conditions named. In cells and extracts the contact can be indirect. Some entries that bind do so weakly or less than the wild type.

The target in the assay is PDGFRβ (mouse (endogenous in NIH3T3)) (UniProt P05622). The experiment in a line: co-IP; PDGFRβ immunoprecipitated with an anti-PDGFRβ antibody from lysates of NIH3T3^COL1A1/PDGFB cells, control or treated with roneparstat (1 mg/ml, 24 h); western blot with anti-phosphotyrosine, anti-phospho-FAK and anti-FAK antibodies. (In western blotting, separated proteins are transferred to a membrane and probed.)

In the case of “focal adhesion kinase (FAK) (from UniProt P34152 1-1052) (enzyme)”, the binding entry is reported as “binds”.
